Reference: paper PMC9468182
No constants are given. Whether binding was seen depends on the method and setting. In cells and extracts the contact can be indirect. Some binding calls cover weakened binding; strength is not graded here. Tags and fused reporters may be left off the sequences shown.

Biological target: Syn1-his (mouse) (UniProt O88935)
Assay: co-IP; Syn1-his and ABHD17a-flag coexpressed in HEK-293T cells; Syn1 immunoprecipitated

B1: ABHD17a-flag (enzyme, UniProt Q99JW1 1-310)
chain: MNGLSVSELCCLFCCPPCPGRIAAKLAFLPPDPTYSLVPEPEPGPGGAGAAPSGPLRTSAATPGRWKIHLTERADFQYGQRELDTIEVFVTKSARANRIACMYVRCVPGARYTVLFSHGNAVDLGQMCSFYVGLGTRIGCNIFSYDYSGYGISSGRPSEKNLYADIDAAWQALRTRYGISPDSIILYGQSIGTVPTVDLASRYECAAVVLHSPLTSGMRVAFPDTKKTYCFDAFPNIEKVSKITSPVLIIHGTEDEVIDFSHGLALYERCPKAVEPLWVEGAGHNDIELYSQYLERLRRFISQELPSQRA
- binding: binds
